Data as given in PubChem BioAssay AID1259424 (University of Nebraska Medical Center, 2018).

Screen: 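Rank knockdowns across the genome by resemblance to the KSR1 depletion profile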 (primary screen)
System: human HCT116 colon cancer cells
Reagents: siRNA pool against human genes, 50 nM
Detection: 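Six signature mRNAs by branched-DNA multiplex assay, scaled to two housekeeping genes and non-targeting median, log2; matched to mean KSR1 knockdown profile by Pearson correlation and euclidean distance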
Reading the numbers: mean correlation with KSR1 profile: higher = expression change more like KSR1 knockdown; mean distance from KSR1 profile: higher = expression change less like KSR1 knockdown
Here is a random part of about 14,000 deposited reagents. 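Higher correlation or smaller distance means closer resemblance to KSR1 loss; control wells, including KSR1 knockdowns, recur on many plates.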 Not all columns of the deposit are shown. No sequences are given here. Not given: the time to read-out.

PPRC1 (PPARG related coactivator 1) showed mean correlation with KSR1 profile -0.63; mean distance from KSR1 profile 3.81. HCP5 (HLA complex P5) showed mean correlation with KSR1 profile -0.111; mean distance from KSR1 profile 1.78. PLOD2 (procollagen-lysine,2-oxoglutarate 5-dioxygenase 2) showed mean correlation with KSR1 profile 0.572; mean distance from KSR1 profile 0.667. Against TAFA5 (TAFA chemokine like family member 5) the deposit lists mean correlation with KSR1 profile -0.377; mean distance from KSR1 profile 2.07. For TXN2 (thioredoxin 2), the values are mean correlation with KSR1 profile -0.103; mean distance from KSR1 profile 2.63. CACNA1C (calcium voltage-gated channel subunit alpha1 C) scored mean correlation with KSR1 profile 0.0282; mean distance from KSR1 profile 2.56.

TMEM63B (transmembrane protein 63B) scored mean correlation with KSR1 profile -0.301; mean distance from KSR1 profile 3.55. Depletion of NEBL (nebulette) resulted in: mean correlation with KSR1 profile -0.12; mean distance from KSR1 profile 1.09. Silencing of PDLIM1 (PDZ and LIM domain 1) gave: mean correlation with KSR1 profile -0.263; mean distance from KSR1 profile 3.28. For NUP37 (nucleoporin 37), the entry reads mean correlation with KSR1 profile 0.443; mean distance from KSR1 profile 1.73. Silencing of ADAMTS6 (ADAM metallopeptidase with thrombospondin type 1 motif 6) resulted in: mean correlation with KSR1 profile -0.219; mean distance from KSR1 profile 1.49. With knock-down of GSR (glutathione-disulfide reductase) the results were mean correlation with KSR1 profile -0.248; mean distance from KSR1 profile 2.36.

Reprinted from above, 2 entries:
NUP37 (nucleoporin 37): mean correlation with KSR1 profile = 0.443; mean distance from KSR1 profile = 1.73
ADAMTS6 (ADAM metallopeptidase with thrombospondin type 1 motif 6): mean correlation with KSR1 profile = -0.219; mean distance from KSR1 profile = 1.49

Additional reagents follow.
After knock-down of MRS2 (magnesium transporter MRS2) the results were mean correlation with KSR1 profile -0.425; mean distance from KSR1 profile 1.75. Depletion of VIL1 (villin 1) came out at: mean correlation with KSR1 profile 0.267; mean distance from KSR1 profile 2.53. Silencing of PDE10A (phosphodiesterase 10A) came out at: mean correlation with KSR1 profile -0.624; mean distance from KSR1 profile 1.64. ZDHHC16 (zDHHC palmitoyltransferase 16) scored mean correlation with KSR1 profile 0.503; mean distance from KSR1 profile 1.96. With knock-down of IL17D (interleukin 17D) the results were mean correlation with KSR1 profile -0.0652; mean distance from KSR1 profile 1.51. Against KLF13 (KLF transcription factor 13), the entry reads mean correlation with KSR1 profile 0.635; mean distance from KSR1 profile 1.28.

For SCNN1D (sodium channel epithelial 1 subunit delta), the entry reads mean correlation with KSR1 profile 0.213; mean distance from KSR1 profile 1.56. Against LUC7L2 (LUC7 like 2, pre-mRNA splicing factor), the values are mean correlation with KSR1 profile -0.505; mean distance from KSR1 profile 4.7. With knock-down of F8 (coagulation factor VIII), the record shows mean correlation with KSR1 profile 0.513; mean distance from KSR1 profile 2.02. With knock-down of TMEM25 (transmembrane protein 25), the screen gave mean correlation with KSR1 profile 0.757; mean distance from KSR1 profile 1.95. Against NOS3 (nitric oxide synthase 3) the deposit lists mean correlation with KSR1 profile 0.784; mean distance from KSR1 profile 1.3. With knock-down of CHST7 (carbohydrate sulfotransferase 7), the record shows mean correlation with KSR1 profile -0.868; mean distance from KSR1 profile 3.39.

Depletion of ATP6V0D1 (ATPase H+ transporting V0 subunit d1) resulted in: mean correlation with KSR1 profile 0.0225; mean distance from KSR1 profile 2.92. With knock-down of S100A4 (S100 calcium binding protein A4), the screen gave mean correlation with KSR1 profile 0.566; mean distance from KSR1 profile 1.38. With knock-down of PHTF2 (putative homeodomain transcription factor 2), the record shows mean correlation with KSR1 profile -0.588; mean distance from KSR1 profile 2.14. OR1D4 (olfactory receptor family 1 subfamily D member 4) gave mean correlation with KSR1 profile 0.3; mean distance from KSR1 profile 2.12.
